Drawing on the supplement of paper PMC8256030, this text covers percent viability for 26 compounds.

Where “and” joins values, the source holds several entries; their conditions need not be identical. Equal entries are not always repeated. Some of the results follow. Repeats in this data set agree poorly, so a single value says little.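 HEK293T cells were given each compound shortly before transfection with a reporter in which red mCherry is followed by the SARS-CoV-2 frameshift element and then GFP in the −1 frame, so GFP appears only after frameshifting.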

In the test the test system is HEK293T. Put plainly: percent viability (nuclei count) relative to control; higher = more viable cells. The conditions noted are these: 10 µM; 24 h.
For `CO/N=C(\C(=O)N[C@@H]1C(=O)N2C(C(=O)O)=C(CSc3nc(=O)c(O)nn3C)CS[C@H]12)c1csc(N)n1` [Rocephin], the percent viability turned out to be 175%.

As to `CCCOc1ccc(C(=O)OCCN(CC)CC)cc1N`, the percent viability is 360%.

With `COC(=O)N/N=C/c1c[n+]([O-])c2ccccc2[n+]1[O-]` [carbadox], the percent viability was found to be 145%.

Consider `CN(c1nccc(=O)[nH]1)C1CCN(c2nc3ccccc3n2Cc2ccc(F)cc2)CC1` [mizolastine], for which the percent viability is 149%.

For `O=C1/C(=C/c2cccs2)CCC/C1=C\c1cccs1` [tenylidone], the percent viability is 102%.

`CCC(c1ccc(O)cc1)C(CC)C(C)c1ccc(O)cc1` (stereo unspecified) [benzestrol]: the percent viability was determined as 227%.

In the case of `COc1ccc2c(c1)N(CCCN(C)C)c1ccccc1S2` [methopromazine], the percent viability was 277%.

For `CCOc1ccc2ccccc2c1C(=O)N[C@@H]1C(=O)N2[C@@H]1SC(C)(C)[C@@H]2C(=O)O`, the percent viability is 329%.

As to `CO/N=C1\CN(c2nc3c(cc2F)c(=O)c(C(=O)O)cn3C2CC2)CC1CN` (stereo unspecified) [gemifloxacin], the percent viability is 295% and 202%.

On to `CC(=O)Oc1ccccc1C(=O)O` [Acetylsalicylic Acid], for which the percent viability stood at 206%.

Regarding `COc1c(N2C[C@@H]3CCCN[C@@H]3C2)c(F)cc2c(=O)c(C(=O)O)cn(C3CC3)c12` [moxifloxacin], the percent viability is 279%.

On to `CCC(=O)N[C@H]1CC[C@@H](C(=O)N(C)c2ccc(-c3nc4ccccc4o3)cc2)C1`, for which the percent viability turned out to be 413%.

On to `CO/N=C(\C(=O)N[C@@H]1C(=O)N2C(C(=O)O)=C(C[N+]3(C)CCCC3)CS[C@H]12)c1csc(N)n1`, for which the percent viability came to 211%.

Regarding `CC(=O)Nc1nnc(S(N)(=O)=O)s1` [acetazolamide], the percent viability was 308%.

With `Nc1ncnc2c1ncn2Cc1c(F)cccc1Cl` [arprinocid], the percent viability came to 100%.

On to `CC1(C)S[C@@H]2[C@H](NC(=O)[C@H](N)c3ccc(O)cc3)C(=O)N2[C@H]1C(=O)O` [Amoxicillin], for which the percent viability was 209%.

`NC(=O)COC(=O)c1ccccc1Nc1cccc(C(F)(F)F)c1` [colfenamate]: the percent viability worked out at 265%.

With `CC(C)[N+](C)(CCOC(=O)C1c2ccccc2Oc2ccccc21)C(C)C` [propantheline bromide], the percent viability is 190%.

For `NC(=O)[C@H]1O[C@@H](O)[C@H](O)[C@@H](O)[C@@H]1O` [glucuronamide], the percent viability came out at 162%.

On to `Cc1cc(N)c2ccccc2[n+]1CCCCCCCCCC[n+]1c(C)cc(N)c2ccccc21` [dequalinium chloride], for which the percent viability came out at 201%.

For the compound `CCC(C(=O)OCCN1CCOC(c2ccccc2)C1C)c1ccccc1` (stereo unspecified) [fenbutrazate], the percent viability worked out at 262%.

Take `CCn1c(=O)c2c(nc(/C=C/c3ccc(OC)c(OC)c3)n2C)n(CC)c1=O` [istradefylline]: the percent viability came out at 154%.

With `CC1(C)O[C@@H]2C[C@H]3[C@@H]4C[C@H](F)C5=CC(=O)C=C[C@]5(C)[C@H]4[C@@H](O)C[C@]3(C)[C@]2(C(=O)CO)O1` [Nasalide], the percent viability turned out to be 207%.

Regarding `Nc1nnnn1-c1ccccc1` [fenamole], the percent viability was determined as 31.8%.

Consider `CCCCC/C=C\C/C=C\C/C=C\CCCCC(=O)O` [gamolenic acid], for which the percent viability came out at 150%.

`C[C@]12CC[C@H]3[C@@H](CCC4=CC(=O)CC[C@@]43C)[C@@H]1CC[C@@H]2C(=O)CO` [desoxycortone]: the percent viability was 154%.
